Results are given in words; binding and its absence hold for the method and conditions named. For part of these data: Binding seen in cells or lysates may run through a third protein. Some results given as binding are weak or reduced against the parent protein; the word gives no strength.
Columns and labels:
[1] = target: T1, Lgl-1 (mouse (endogenous in mouse brain)) (UniProt Q80Y17); experiment: SEC; mouse brain cortex lysates (PBS, 0.1% triton X-100), 250 µg protein, superose 6 on a SMART system, 40 fractions analysed by Western blot; control and aPKCλ S1-cko mice
T1 sequence: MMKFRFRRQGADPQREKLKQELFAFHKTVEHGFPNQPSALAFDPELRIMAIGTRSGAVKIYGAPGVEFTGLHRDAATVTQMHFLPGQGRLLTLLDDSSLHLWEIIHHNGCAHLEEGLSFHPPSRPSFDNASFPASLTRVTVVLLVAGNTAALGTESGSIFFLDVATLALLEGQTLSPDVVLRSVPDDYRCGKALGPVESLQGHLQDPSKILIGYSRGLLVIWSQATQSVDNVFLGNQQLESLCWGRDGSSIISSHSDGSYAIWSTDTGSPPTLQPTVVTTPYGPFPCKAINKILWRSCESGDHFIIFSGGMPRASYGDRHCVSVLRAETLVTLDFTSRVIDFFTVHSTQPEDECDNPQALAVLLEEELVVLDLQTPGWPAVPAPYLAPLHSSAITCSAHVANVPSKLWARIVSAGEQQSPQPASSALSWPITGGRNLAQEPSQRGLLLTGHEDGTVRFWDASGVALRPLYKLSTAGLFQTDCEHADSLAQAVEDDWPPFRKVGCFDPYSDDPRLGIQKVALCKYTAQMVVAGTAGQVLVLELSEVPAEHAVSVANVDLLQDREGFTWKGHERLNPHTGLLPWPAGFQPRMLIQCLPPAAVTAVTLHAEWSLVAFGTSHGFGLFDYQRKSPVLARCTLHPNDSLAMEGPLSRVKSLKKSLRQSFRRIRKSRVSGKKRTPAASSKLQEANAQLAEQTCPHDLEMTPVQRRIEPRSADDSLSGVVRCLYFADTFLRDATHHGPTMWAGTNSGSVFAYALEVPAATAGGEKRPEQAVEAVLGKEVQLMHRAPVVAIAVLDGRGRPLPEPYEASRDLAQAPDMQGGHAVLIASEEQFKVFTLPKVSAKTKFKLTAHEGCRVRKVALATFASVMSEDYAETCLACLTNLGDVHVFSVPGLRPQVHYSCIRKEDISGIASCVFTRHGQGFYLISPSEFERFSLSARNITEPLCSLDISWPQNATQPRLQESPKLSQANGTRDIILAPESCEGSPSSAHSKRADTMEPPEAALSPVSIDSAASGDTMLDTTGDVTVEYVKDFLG

[2] = target: T2, atypical protein kinase C lambda (aPKCλ) (mouse (endogenous in mouse brain)) (UniProt Q62074); experiment: as above
T2 sequence: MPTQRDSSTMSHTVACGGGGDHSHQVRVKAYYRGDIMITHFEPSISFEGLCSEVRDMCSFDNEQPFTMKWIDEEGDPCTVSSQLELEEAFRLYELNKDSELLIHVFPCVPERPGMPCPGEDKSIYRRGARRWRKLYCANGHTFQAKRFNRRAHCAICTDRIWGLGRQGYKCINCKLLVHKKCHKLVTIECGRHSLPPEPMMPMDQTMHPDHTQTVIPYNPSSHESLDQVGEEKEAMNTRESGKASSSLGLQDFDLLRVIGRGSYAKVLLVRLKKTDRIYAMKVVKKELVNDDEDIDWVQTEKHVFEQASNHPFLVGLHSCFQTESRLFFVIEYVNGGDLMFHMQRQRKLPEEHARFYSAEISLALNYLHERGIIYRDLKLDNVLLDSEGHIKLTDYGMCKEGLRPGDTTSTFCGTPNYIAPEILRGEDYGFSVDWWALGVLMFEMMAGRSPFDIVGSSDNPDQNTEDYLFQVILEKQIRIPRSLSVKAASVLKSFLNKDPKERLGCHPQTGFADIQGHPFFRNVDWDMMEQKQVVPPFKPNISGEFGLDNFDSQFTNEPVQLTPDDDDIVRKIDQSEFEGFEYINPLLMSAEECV

[3] = target: T1, Lgl-1 (mouse (endogenous in mouse brain)); experiment: co-IP; mouse cerebrum lysates (20 mM Hepes pH 7.2, 150 mM NaCl, 0.5% triton X-100, 10% glycerol), 2 mg protein, anti-Lgl-1 antisera (C-2) on protein A sepharose; Western blot for Lgl-1 and aPKCλ; control mice and aPKCλ S1-cko or C2-cko mice

binding [1]: binds | binding [2]: no binding | binding [3]: binds
B1: atypical protein kinase C lambda (aPKCλ) (enzyme, UniProt Q62074 1-595)
chain: MPTQRDSSTMSHTVACGGGGDHSHQVRVKAYYRGDIMITHFEPSISFEGLCSEVRDMCSFDNEQPFTMKWIDEEGDPCTVSSQLELEEAFRLYELNKDSELLIHVFPCVPERPGMPCPGEDKSIYRRGARRWRKLYCANGHTFQAKRFNRRAHCAICTDRIWGLGRQGYKCINCKLLVHKKCHKLVTIECGRHSLPPEPMMPMDQTMHPDHTQTVIPYNPSSHESLDQVGEEKEAMNTRESGKASSSLGLQDFDLLRVIGRGSYAKVLLVRLKKTDRIYAMKVVKKELVNDDEDIDWVQTEKHVFEQASNHPFLVGLHSCFQTESRLFFVIEYVNGGDLMFHMQRQRKLPEEHARFYSAEISLALNYLHERGIIYRDLKLDNVLLDSEGHIKLTDYGMCKEGLRPGDTTSTFCGTPNYIAPEILRGEDYGFSVDWWALGVLMFEMMAGRSPFDIVGSSDNPDQNTEDYLFQVILEKQIRIPRSLSVKAASVLKSFLNKDPKERLGCHPQTGFADIQGHPFFRNVDWDMMEQKQVVPPFKPNISGEFGLDNFDSQFTNEPVQLTPDDDDIVRKIDQSEFEGFEYINPLLMSAEECV
